Reference: patent US20190328891A1 (CONTIPRO A.S., priority 2016, published 2019)

Assays:
[1] = general procedure: peptide synthesis; carrier based on hyaluronan in the form of fibres, thin films, or nonwoven fabrics; conditions: whole synthesis
peptide synthesis = conditions: whole synthesis

Row | Substance | purity (crude or final not stated) [1] | other results
1 | Ac-Ahx-Ahx-Arg-Gly-Asp-Nle-O-HYA | 86% | 
2 | Ac-Arg-Gly-Asp-Ahx-Ahx-Nle-O-HYA | 95% | 
3 | Ac-Arg-Gly-Asp-Gly-Gly-Gly-Nle-O-HYA | 90% | 
4 | H-(Ala)7-Lys(Boc)-Nle-O-HYA | 86% | 
5 | H-(Val-Pro-Gly-Leu-Gly)2-O-HYA | 85% | 
6 | H-Ahx-Ahx-Arg-Gly-Asp-Nle-O-HYA |  | purity (crude or final not stated) (peptide synthesis): 89%
7 | H-Arg-Gly-Asp-Gly-Gly-Gly-Nle-O-HYA (RGDGGG; H-, Nle-O-hyaluronan conjugate; printed: Arg-Gly-Asp-Gly-Gly-Gly-) |  | purity (crude or final not stated) (peptide synthesis; T7 r6): 82%; purity (crude or final not stated) (peptide synthesis; T8 r5): 85%
8 | H-Gly-Gly-Gly-Arg-Gly-Asp-Nle-O-HYA (GGGRGD; H-, Nle-O-hyaluronan conjugate; printed: Gly-Gly-Gly-Arg-Gly-Asp-) |  | purity (crude or final not stated) (peptide synthesis; T7 r7): 85%; purity (crude or final not stated) (peptide synthesis; T8 r6): 76%
